# These are yes or no findings as the source states them, for the method shown. Where a sequence is shown, tags or fusion partners need not be part of it.
# Target: T1, PHOT1 C (kinase domain of PHOT1), GAL4 DNA-binding domain fusion (Arabidopsis thaliana) (UniProt O48963)
# T1 sequence: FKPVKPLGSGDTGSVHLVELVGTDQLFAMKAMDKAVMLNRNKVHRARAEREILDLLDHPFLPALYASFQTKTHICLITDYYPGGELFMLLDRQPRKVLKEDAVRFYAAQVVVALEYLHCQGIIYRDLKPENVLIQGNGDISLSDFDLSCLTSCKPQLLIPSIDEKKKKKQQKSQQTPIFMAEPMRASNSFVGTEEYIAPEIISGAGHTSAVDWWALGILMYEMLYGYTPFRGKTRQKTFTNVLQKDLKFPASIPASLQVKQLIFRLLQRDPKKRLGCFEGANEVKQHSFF
# Experiment: two-hybrid
substance,measurement,value
"N-terminal half of RPT2 (RPT2 N), GAL4 transcription-activating domain fusion (Arabidopsis thaliana) (domain or fragment)",binding,no binding

# Source: paper doi:10.1101/862649
